Measurements: PMC2785806
These are yes or no findings as the source states them, for the method shown. Binding seen in cells or lysates may run through a third protein. Some entries that bind do so weakly or less than the wild type.

Protein sequences, listed by entry. Tags and fused reporters are not part of them.
UniProt P04052: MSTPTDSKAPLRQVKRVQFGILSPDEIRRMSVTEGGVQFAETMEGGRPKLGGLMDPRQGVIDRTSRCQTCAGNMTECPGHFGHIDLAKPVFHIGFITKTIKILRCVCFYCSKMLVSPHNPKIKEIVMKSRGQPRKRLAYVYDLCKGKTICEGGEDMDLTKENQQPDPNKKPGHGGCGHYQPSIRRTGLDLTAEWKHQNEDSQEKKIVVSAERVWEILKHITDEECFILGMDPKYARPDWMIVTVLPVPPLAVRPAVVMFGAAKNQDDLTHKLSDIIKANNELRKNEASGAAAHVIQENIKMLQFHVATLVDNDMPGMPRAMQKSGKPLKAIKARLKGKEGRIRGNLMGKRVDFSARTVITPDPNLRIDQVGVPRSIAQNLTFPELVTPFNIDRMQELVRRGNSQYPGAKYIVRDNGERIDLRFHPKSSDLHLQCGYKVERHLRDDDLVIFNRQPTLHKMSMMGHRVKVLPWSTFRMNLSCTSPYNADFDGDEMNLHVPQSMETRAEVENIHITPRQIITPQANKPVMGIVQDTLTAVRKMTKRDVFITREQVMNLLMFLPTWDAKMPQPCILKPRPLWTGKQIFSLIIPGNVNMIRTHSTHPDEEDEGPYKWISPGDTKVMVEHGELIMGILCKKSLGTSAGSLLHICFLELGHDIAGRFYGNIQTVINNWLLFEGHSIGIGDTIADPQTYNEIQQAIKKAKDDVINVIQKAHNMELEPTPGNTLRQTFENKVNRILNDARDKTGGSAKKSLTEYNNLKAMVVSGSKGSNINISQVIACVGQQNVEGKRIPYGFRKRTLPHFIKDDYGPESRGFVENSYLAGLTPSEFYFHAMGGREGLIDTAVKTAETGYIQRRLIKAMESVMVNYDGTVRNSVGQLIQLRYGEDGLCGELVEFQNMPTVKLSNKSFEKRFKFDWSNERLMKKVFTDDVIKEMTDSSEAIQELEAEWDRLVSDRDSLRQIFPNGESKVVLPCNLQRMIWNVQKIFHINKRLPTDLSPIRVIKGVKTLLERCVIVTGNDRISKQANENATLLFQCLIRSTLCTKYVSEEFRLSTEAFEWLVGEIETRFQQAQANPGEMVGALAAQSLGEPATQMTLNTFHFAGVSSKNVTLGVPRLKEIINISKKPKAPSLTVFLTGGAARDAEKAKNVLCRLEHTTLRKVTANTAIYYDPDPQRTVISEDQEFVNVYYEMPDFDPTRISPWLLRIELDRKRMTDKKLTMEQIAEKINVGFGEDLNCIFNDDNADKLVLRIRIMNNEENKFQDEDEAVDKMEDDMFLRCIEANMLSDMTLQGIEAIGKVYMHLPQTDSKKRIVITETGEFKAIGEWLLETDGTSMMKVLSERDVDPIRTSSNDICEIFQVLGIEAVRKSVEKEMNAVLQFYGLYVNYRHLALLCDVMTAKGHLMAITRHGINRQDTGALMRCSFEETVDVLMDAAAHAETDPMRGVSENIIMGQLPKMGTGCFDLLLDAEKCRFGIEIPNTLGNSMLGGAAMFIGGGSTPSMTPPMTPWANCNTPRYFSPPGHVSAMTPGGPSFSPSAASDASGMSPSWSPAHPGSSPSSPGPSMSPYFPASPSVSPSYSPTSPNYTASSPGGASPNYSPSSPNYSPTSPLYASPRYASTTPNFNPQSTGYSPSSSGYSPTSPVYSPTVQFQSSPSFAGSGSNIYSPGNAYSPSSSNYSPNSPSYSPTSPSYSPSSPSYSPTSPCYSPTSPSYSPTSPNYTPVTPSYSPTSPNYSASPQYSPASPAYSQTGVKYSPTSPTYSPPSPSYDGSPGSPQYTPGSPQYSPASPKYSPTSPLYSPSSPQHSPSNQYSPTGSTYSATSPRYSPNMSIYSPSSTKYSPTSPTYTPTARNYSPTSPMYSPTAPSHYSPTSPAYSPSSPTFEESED
UniProt A1ZAW0: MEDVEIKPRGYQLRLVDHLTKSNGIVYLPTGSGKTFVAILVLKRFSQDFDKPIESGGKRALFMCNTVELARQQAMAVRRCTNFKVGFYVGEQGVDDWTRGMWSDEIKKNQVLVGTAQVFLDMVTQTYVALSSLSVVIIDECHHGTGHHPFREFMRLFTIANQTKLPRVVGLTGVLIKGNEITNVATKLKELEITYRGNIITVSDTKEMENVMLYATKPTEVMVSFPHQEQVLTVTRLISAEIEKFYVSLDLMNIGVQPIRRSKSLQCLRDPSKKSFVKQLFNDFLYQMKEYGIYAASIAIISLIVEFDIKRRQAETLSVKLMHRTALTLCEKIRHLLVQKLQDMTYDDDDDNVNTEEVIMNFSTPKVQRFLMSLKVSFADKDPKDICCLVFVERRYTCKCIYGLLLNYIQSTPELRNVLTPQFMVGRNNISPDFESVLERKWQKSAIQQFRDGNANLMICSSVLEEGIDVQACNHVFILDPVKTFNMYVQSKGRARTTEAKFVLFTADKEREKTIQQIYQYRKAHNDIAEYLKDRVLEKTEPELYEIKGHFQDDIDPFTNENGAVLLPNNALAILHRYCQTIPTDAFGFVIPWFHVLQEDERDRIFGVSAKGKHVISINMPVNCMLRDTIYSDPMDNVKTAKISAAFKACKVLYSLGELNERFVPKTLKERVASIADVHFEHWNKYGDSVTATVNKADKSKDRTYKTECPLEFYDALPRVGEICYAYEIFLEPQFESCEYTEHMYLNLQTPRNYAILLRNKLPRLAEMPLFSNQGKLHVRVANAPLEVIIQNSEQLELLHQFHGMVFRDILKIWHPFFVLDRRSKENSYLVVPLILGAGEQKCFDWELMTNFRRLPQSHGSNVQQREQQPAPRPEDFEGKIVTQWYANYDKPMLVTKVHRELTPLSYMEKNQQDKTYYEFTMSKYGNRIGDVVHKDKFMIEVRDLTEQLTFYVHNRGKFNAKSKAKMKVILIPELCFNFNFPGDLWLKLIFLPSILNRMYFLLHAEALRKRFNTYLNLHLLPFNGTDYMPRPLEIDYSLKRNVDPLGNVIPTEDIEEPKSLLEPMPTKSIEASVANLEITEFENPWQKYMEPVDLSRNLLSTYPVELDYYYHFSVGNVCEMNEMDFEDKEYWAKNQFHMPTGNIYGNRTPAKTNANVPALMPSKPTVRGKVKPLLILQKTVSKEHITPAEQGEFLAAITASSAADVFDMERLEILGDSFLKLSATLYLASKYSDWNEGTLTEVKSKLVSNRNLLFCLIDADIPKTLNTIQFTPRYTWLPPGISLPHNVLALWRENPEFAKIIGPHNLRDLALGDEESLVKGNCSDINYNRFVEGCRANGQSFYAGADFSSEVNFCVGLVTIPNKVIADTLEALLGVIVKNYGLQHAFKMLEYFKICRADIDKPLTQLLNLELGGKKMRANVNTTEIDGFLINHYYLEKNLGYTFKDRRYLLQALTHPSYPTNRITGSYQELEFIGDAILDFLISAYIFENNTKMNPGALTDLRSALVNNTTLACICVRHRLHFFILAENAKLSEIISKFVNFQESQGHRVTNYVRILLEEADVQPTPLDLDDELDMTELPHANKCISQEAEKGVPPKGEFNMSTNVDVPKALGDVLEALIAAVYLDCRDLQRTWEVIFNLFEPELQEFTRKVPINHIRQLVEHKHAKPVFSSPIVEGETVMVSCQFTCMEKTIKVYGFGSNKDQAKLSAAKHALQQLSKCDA

Target: RNA Pol II ser-2 phos CTD (largest subunit with the CTD phosphorylated on ser-2, the transcriptionally competent form), as precipitated with the H5 antibody (Drosophila (endogenous in wild type embryos)) (UniProt P04052)
Assay: co-IP; whole cell extract of 6-18 h wild type Drosophila embryos; performed as with 8WG16 but with H5 antibodies specific for RNA Pol II ser-2 phos; western blot

“Dicer-2 (from UniProt A1ZAW0 1-1722) (enzyme)” was tested. Which binding did it give?
Its binding is “binds”.
